Data reported in article PMC7072528.
Results are given in words; binding and its absence hold for the method and conditions named. In cells and extracts the contact can be indirect. Some binding calls cover weakened binding; strength is not graded here.

Protein sequences, listed by entry. Tags and fused reporters are not part of them. Residues count along the entry.
UniProt P11021, residues 19-654: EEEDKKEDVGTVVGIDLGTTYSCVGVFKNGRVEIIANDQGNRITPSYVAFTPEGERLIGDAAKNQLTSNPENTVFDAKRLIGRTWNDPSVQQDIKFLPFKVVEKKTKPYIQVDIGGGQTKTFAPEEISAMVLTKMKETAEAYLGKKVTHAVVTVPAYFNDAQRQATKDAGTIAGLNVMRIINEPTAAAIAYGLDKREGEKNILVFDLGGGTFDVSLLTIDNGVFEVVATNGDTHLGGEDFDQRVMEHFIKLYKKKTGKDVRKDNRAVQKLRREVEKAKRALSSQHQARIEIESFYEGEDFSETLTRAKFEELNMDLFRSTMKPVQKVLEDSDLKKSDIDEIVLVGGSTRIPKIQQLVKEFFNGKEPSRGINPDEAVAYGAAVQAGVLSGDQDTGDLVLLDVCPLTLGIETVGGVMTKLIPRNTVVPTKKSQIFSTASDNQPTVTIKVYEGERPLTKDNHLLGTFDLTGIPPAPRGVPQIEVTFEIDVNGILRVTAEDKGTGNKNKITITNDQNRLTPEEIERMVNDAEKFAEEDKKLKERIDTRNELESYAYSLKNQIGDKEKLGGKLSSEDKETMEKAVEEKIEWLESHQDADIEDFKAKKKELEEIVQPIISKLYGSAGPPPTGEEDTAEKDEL
UniProt P27986: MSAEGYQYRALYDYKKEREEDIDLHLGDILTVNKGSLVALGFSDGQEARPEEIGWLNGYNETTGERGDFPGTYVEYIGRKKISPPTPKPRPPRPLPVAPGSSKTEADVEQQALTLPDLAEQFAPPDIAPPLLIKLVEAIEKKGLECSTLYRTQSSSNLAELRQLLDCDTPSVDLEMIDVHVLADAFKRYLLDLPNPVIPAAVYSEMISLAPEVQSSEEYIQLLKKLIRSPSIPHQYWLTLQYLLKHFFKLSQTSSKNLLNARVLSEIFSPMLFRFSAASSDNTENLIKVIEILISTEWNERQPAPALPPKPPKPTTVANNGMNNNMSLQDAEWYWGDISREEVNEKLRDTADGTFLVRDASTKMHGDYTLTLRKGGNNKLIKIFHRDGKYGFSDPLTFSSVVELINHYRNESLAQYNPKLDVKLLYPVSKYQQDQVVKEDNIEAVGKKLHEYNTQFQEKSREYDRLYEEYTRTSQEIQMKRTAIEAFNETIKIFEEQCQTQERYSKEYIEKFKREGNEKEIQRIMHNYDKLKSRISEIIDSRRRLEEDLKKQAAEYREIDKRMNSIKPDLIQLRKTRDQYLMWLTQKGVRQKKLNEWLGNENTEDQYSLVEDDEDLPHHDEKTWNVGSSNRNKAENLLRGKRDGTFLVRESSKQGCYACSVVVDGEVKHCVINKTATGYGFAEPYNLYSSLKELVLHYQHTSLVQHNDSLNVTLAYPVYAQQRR

Molecular target: GRP78, ectopically expressed (pGRP78) (UniProt P11021)
Assay: co-IP; cell surface-biotinylated proteins from DRM fractions, isolated with streptavidin-agarose beads, then immunoprecipitated with anti-GRP78; control vector- or GRP78-transfected cells, vehicle or TSWU-BR4

binding: binds
Substance: PI3K regulatory subunit p85α (from UniProt P27986 1-724)
